The list does not hold the whole screen: it gathers tests that were run many times, whatever their T/C, doses with no T/C, and many T/C values between a quarter and a half above the control. Other doses and runs of a compound stand elsewhere. T/C gives the treated animals as a percentage of the vehicle group. Some entries give survivors of the animals treated and no T/C: the source holds a T/C of zero for them, seemingly a mark for toxic or unscored doses. Some doses without a T/C left all or most animals alive at the check, yet need not have been tolerated: the source hardly ever lists a survival T/C far under the control, and the zero likely stands for such cases as well. Survivors were counted at the toxicity check, usually on the fifth day, unless a day is given; later deaths do not show. Schedules are NCI's codes, read here as Q, the interval in days (D) or hours (H), X, the number of doses. Some entries were tested several times; their values stand side by side, smallest first. For survival time, the PubChem record calls one and a half times the control and up active, and a quarter to a half above the control has no call in these data; cut-offs in other NCI protocols can differ. Some T/C values are followed by the survivors on the day toxicity was checked, most often the fifth; where none is given, no animal had died by that day. Signs of the kind (2×) say how often a value occurs here.

The test deals with B6C3F1 mice, Lewis lung carcinoma iv, survival T/C. In words: NCI In Vivo Anticancer Drug Screen. Data for tumor model Lewis Lung Carcinoma (intravenous) in B6C3F1 mice. The settings on record: T/C endpoint: median survival time, schedule: Q01DX009 (ip), higher T/C = longer survival. The gist of the method: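 Tumors were transplanted into mice, which were then dosed with compound or vehicle. Survival was recorded in each group, and the treated figure was divided by the control figure.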

Setting [1] is: dose: 4.0 mg/kg/injection, vehicle: saline.
Setting [2] is: dose: 16.0 mg/kg/injection, vehicle: saline.
Where [3] appears, read: dose: 32.0 mg/kg/injection, vehicle: saline.
Setting [4] is: dose: 64.0 mg/kg/injection, vehicle: saline.
Setting [5] is: dose: 32.0 mg/kg/injection, vehicle: Klucel (hydroxypropylcellulose) (HPC).
The mark [6] stands for this setting: dose: 25.0 mg/kg/injection, vehicle: saline with Tween-80.
Where [7] appears, read: dose: 50.0 mg/kg/injection, vehicle: saline with Tween-80.
The mark [8] stands for this setting: dose: 100.0 mg/kg/injection, vehicle: saline with Tween-80.
The mark [9] stands for this setting: dose: 200.0 mg/kg/injection, vehicle: saline.
Setting [10] is: dose: 12.5 mg/kg/injection, vehicle: Klucel (hydroxypropylcellulose) (HPC).
Where [11] appears, read: dose: 25.0 mg/kg/injection, vehicle: Klucel (hydroxypropylcellulose) (HPC).
Where [12] appears, read: dose: 50.0 mg/kg/injection, vehicle: Klucel (hydroxypropylcellulose) (HPC).

Regarding `Cc1c(N)nc([C@H](CC(N)=O)NC[C@H](N)C(N)=O)nc1C(=O)N[C@H](C(=O)N[C@H](C)[C@@H](O)[C@H](C)C(=O)N[C@H](C(=O)NCCc1nc(-c2nc(C(=O)NCCC[S+](C)C)cs2)cs1)[C@@H](C)O)C(OC1OC(CO)C(O)C(O)C1OC1OC(CO)C(O)C(OC(N)=O)C1O)c1cnc[nH]1` (stereo partly specified), the T/C runs as follows: under setting [1], 104, 119, 120, 142 % of control; (dose: 8.0 mg/kg/injection, vehicle: saline) 123, 124, 143 % of control (2×); under setting [2], 143, 145, 150, 171 % of control. In addition, the survivor count was 9 of 10 and 10 of 10 under setting [3]; 10 of 10 under setting [4].

As for `O=NN(CCCl)C(=O)NC1CCCCC1`, the T/C is 125 % of control (dose: 1.0 mg/kg/injection, vehicle: Klucel (hydroxypropylcellulose) (HPC)); 128 % of control (dose: 2.0 mg/kg/injection, vehicle: Klucel (hydroxypropylcellulose) (HPC)); 146 % of control (dose: 8.0 mg/kg/injection, vehicle: Klucel (hydroxypropylcellulose) (HPC)); 141 % of control (dose: 16.0 mg/kg/injection, vehicle: Klucel (hydroxypropylcellulose) (HPC)); 129 and 141 % of control [9 of 10 alive] under setting [5]. In addition, the survivor count under setting [5] is 6 of 10.

As for `CC(=O)OC1C(O)C(C)OC(OC2C(OC(=O)C3CCC4C(C3)OC3(CC(OC(=O)/C=C/c5ccccc5)C(C)CO3)C43CO3)OC(C)C(O)C2OC(C)=O)C1O` (stereo unspecified), the survivor count (dose: 32.0 mg/kg/injection, vehicle: distilled water + Tween-80) was 9 of 10.

For the compound `COc1cccc2c1C(=O)c1c(O)c3c(c(O)c1C2=O)C[C@H](O)C[C@@H]3OC1CC(N)C(O)C(C)O1` (stereo partly specified), the T/C (dose: 12.0 mg/kg/injection, vehicle: water) is 131 % of control. Moreover, for the setting “dose: 24.0 mg/kg/injection, vehicle: water”, the survivor count is given as 10 of 10.

For the compound `CC(=O)O[C@@]1(C)[C@@H](C)C(=O)O[C@@H]2CCN3CC=C(COC(=O)[C@]1(C)O)[C@H]23`, the T/C under setting [6] was 138 % of control, the T/C under setting [7] is 146 % of control and the T/C under setting [8] is 140 % of control. Where the note is “dose: 200.0 mg/kg/injection, vehicle: saline with Tween-80”, the survivor count is 8 of 10.

`Nc1nc(-c2ccccc2)c(Br)c(=O)[nH]1`: for the setting “dose: 1600.0 mg/kg/injection, vehicle: saline with Tween-80”, the survivor count is 0 of 10.

As for `c1ccc2c(c1)-c1ccccc1C1NC21` (stereo unspecified), the survivor count runs as follows: under setting [6], 10 of 10; under setting [7], 7 of 10; under setting [8], 0 of 10.

Regarding `Cc1nnc2ncccn12`, the T/C under setting [9] was 137 % of control.

On to `CC1(C)COCN1COCCOCN1COCC1(C)C`, for which the survivor count under setting [9] is on record as 0 of 10.

With `COC12C(COC(=O)NCCO)C3=C(C(=O)C(C)=C(N)C3=O)N1CC1NC12` (stereo unspecified), under setting [10], the T/C is 132 % of control. The survivor count is, setting by setting: under setting [11], 10 of 10; under setting [12], 10 of 10.

As for `COC1=C2C[C@@H](C)C[C@@H](OC)[C@@H](O)[C@H](C)/C=C(\C)[C@@H](OC(N)=O)[C@H](OC)/C=C\C=C(/C)C(=O)NC(=CC1=O)C2=O`, where the note is “dose: 4.0 mg/kg/injection, vehicle: saline with Tween-80”, the survivor count is 6 of 10.

For the compound `Cc1c(N)nc([C@H](CC(N)=O)NC[C@H](N)C(N)=O)nc1C(=O)N[C@H](C(=O)N[C@H](C)[C@@H](O)CC(=O)N[C@H](C(=O)NC(O[C@@H]1O[C@@H](C)[C@@H](N)[C@@H](O)[C@H]1O)C(O)c1nc(-c2nc(C(=O)NCCCCN)cs2)cs1)[C@@H](C)O)[C@@H](O[C@@H]1O[C@@H](CO)[C@@H](O)[C@H](O)[C@@H]1O[C@H]1O[C@H](CO)[C@@H](O)[C@H](OC(N)=O)[C@@H]1O)c1c[nH]cn1` (stereo partly specified), the T/C under setting [1] is 138 % of control. The survivor count reads like this: under setting [2], 10 of 10; under setting [3], 10 of 10; under setting [4], 7 of 10.

In the case of `C[C@]12CCC(=O)C=C1CC[C@@H]1[C@@H]2[C@@H](O)C[C@@]2(C)[C@H]1CC[C@]2(O)C(=O)CO`, the survivor count (dose: 400.0 mg/kg/injection, vehicle: Klucel (hydroxypropylcellulose) (HPC)) is given as 10 of 10.

As to `CC1=NNC(=O)C1CCO` (stereo unspecified), the T/C was 126 % of control under setting [10] and 141 % of control under setting [11].

As to `CCCCCC[Se][Se]CCCCCC`, the survivor count runs as follows: under setting [11], 3 of 10; under setting [12], 2 of 10.

In the case of `CCOC(=O)C(N)CSC(=O)NC` (stereo unspecified), under “dose: 400.0 mg/kg/injection, vehicle: saline”, the survivor count is given as 8 of 10.

`COc1cc(C2c3cc4c(cc3[C@@H](OC3OC5CO[C@@H](C)OC5C(O)C3O)[C@H]3COC(=O)C23)OCO4)cc(OC)c1OC` (stereo partly specified): the survivor count under setting [9] is on record as 8 of 8.

As to `NC(=S)c1cn(C2OC(CO)C(O)C2O)c2ncnc(N)c12` (stereo unspecified), the survivor count (dose: 10.0 mg/kg/injection, vehicle: suspension in saline) is 7 of 10.

As to `NC(CNC(=O)CBr)C(=O)O` (stereo unspecified), the survivor count (dose: 100.0 mg/kg/injection, vehicle: water) is listed as 3 of 10.

(Values after PubChem BioAssay AID276 (DTP/NCI, 2004).)
